# Measurements published in PubChem BioAssay AID328 (DTP/NCI, 2004).
# The list does not hold the whole screen: it is rich in T/C values a quarter to a half above the control, in often repeated tests (any T/C) and in doses without a T/C. Other doses and runs of a compound stand elsewhere. T/C gives the treated animals as a percentage of the vehicle group. Some entries give survivors of the animals treated and no T/C: the source files T/C as zero there, which appears to mark a toxic dose or a test without result, not a measured value. Some survivor counts are full or nearly so, which does not show that the dose was tolerated: the source hardly ever lists a survival T/C far under the control, and the zero likely stands for such cases as well. Survivors were counted at the toxicity check, usually on the fifth day, unless a day is given; later deaths do not show. Schedules are NCI's codes, taken here to give the interval after Q, in days (D) or hours (H), and the number of doses after X. Some entries were tested several times; the values are given in rising order. Marks such as (2×) count equal records among those shown. For survival time, this PubChem deposit counts one and a half times the control or more as active, and values a quarter to a half above the control carry no call in these data; other NCI protocols may use other cut-offs. Some T/C values carry the count of animals alive at the toxicity check (mostly the fifth day); where none is given, no animal had died by that day.
# Tested on: BDF1 mice, P388 leukemia ip, median survival T/C
# Assay: NCI In Vivo Anticancer Drug Screen. Data for tumor model P388 Leukemia (intraperitoneal) in B6D2F1 (BDF1) mice
# Settings: T/C endpoint: median survival time, higher T/C = longer survival
# Method in brief: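 Each value expresses how treatment altered survival: treated-mouse outcome over vehicle-mouse outcome, both groups bearing the transplanted tumour.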
# [1] = dose: 100.0 mg/kg/injection, schedule: Q01DX009 (ip), vehicle: Klucel (hydroxypropylcellulose) (HPC)
# [2] = dose: 200.0 mg/kg/injection, schedule: Q01DX005 (ip), vehicle: Klucel (hydroxypropylcellulose) (HPC)
smiles,measurement,setting,value
O=P1(N(CCCl)CCCl)NCCCO1 (stereo unspecified),survivor count,"dose: 100.0 mg/kg/injection, schedule: Q01DX005 (ip), vehicle: Klucel (hydroxypropylcellulose) (HPC)",3 of 3 and 6 of 6
same,T/C,[1],"87, 88, 89, 90, 96, 97, 100, 105, 107, 110, 112, 112 [2 of 2 alive], 117, 119, 136, 139, 174, 178, 262 % of control"
same,survivor count,[1],3 of 3 and 6 of 6
same,T/C,"dose: 100.0 mg/kg/injection, schedule: Q04DX002 (ip), vehicle: Klucel (hydroxypropylcellulose) (HPC), evaluated on day 30","131, 170, 197, 205, 210, 220, 231, 237 (2×), 238, 247, 252, 256 (2×), 258 (2×), 262, 265, 269, 270, 272, 275 (2×), 279, 280, 283, 285, 288, 294, 306 (2×), 309, 322 % of control"
same,T/C,"dose: 100.0 mg/kg/injection, schedule: Q04DX002 (ip), vehicle: Klucel (hydroxypropylcellulose) (HPC), evaluated on day 35",301 % of control
same,T/C,"dose: 100.0 mg/kg/injection, schedule: Q04DX003 (ip), vehicle: Klucel (hydroxypropylcellulose) (HPC), evaluated on day 30","86, 91 [5 of 6 alive], 106 (2×), 107, 108, 121, 122, 132, 134, 135, 136, 140, 151, 171 [2 of 3 alive], 192, 224, 227, 229 (2×), 243, 247, 253, 257, 260, 263, 266, 269, 270, 271, 272 (2×), 283 % of control"
same,T/C,"dose: 100.0 mg/kg/injection, schedule: Q04DX003 (ip), vehicle: Klucel (hydroxypropylcellulose) (HPC), evaluated on day 35",218 and 312 % of control
same,survivor count,"dose: 100.0 mg/kg/injection, schedule: Q04DX003 (ip), vehicle: Klucel (hydroxypropylcellulose) (HPC)",3 of 3
same,T/C,"dose: 100.0 mg/kg/injection, schedule: Q04DX003 (ip), vehicle: saline, evaluated on day 5","116, 183, 206, 233, 266, 343, 351, 558 % of control"
same,T/C,"dose: 100.0 mg/kg/injection, schedule: Q04DX003 (ip), vehicle: saline, evaluated on day 9",413 % of control
same,T/C,"dose: 100.0 mg/kg/injection, schedule: Q04DX003 (ip), vehicle: saline, evaluated on day 11",95 % of control
same,T/C,"dose: 100.0 mg/kg/injection, schedule: Q04DX003 (ip), vehicle: saline, evaluated on day 30",259 and 266 % of control
same,T/C,"dose: 100.0 mg/kg/injection, schedule: Q04DX003 (ip), vehicle: saline, evaluated on day 60","116, 183, 206, 233, 266, 343, 351 % of control"
same,T/C,"dose: 133.0 mg/kg/injection, schedule: Q01DX001 (ip), vehicle: saline, evaluated on day 5","112, 117, 203, 212, 233, 250, 305, 306 % of control"
same,T/C,"dose: 133.0 mg/kg/injection, schedule: Q01DX001 (ip), vehicle: saline, evaluated on day 60","112, 117, 203, 212, 233, 250, 305 (2×), 306, 316, 338, 352, 486, 530 % of control"
same,T/C,"dose: 150.0 mg/kg/injection, schedule: Q01DX001 (ip), vehicle: saline, evaluated on day 5",310 % of control
same,T/C,"dose: 150.0 mg/kg/injection, schedule: Q01DX001 (ip), vehicle: saline, evaluated on day 34",263 % of control
same,T/C,"dose: 150.0 mg/kg/injection, schedule: Q01DX001 (ip), vehicle: saline, evaluated on day 46",356 % of control
same,T/C,"dose: 150.0 mg/kg/injection, schedule: Q01DX001 (ip), vehicle: saline, evaluated on day 60","295, 359, 433 % of control"
same,T/C,"dose: 160.0 mg/kg/injection, schedule: Q01DX005 (ip), vehicle: saline, evaluated on day 30",91 % of control
same,T/C,"dose: 160.0 mg/kg/injection, schedule: Q01DX005 (ip), vehicle: saline, evaluated on day 35",156 and 343 % of control
same,survivor count,"dose: 160.0 mg/kg/injection, schedule: Q01DX005 (ip), vehicle: saline",5 of 6 (2×) and 6 of 6
same,T/C,"dose: 160.0 mg/kg/injection, schedule: Q01DX009 (ip), vehicle: saline, evaluated on day 35",91 [5 of 6 alive] and 100 % of control
same,T/C,"dose: 160.0 mg/kg/injection, schedule: Q01DX009 (ip), vehicle: saline, evaluated on day 40",89 % of control
same,survivor count,"dose: 160.0 mg/kg/injection, schedule: Q01DX009 (ip), vehicle: saline",5 of 6 and 6 of 6
same,T/C,"dose: 200.0 mg/kg/injection, schedule: Q01DX001 (ip), vehicle: Klucel (hydroxypropylcellulose) (HPC), evaluated on day 30","101, 194, 205, 216, 221, 228, 234, 239, 245, 247, 250, 252 (2×), 260, 265, 266, 267, 267 [2 of 3 alive], 270, 271, 272, 274, 275 (2×), 276, 279, 285 % of control (2×)"
same,T/C,"dose: 200.0 mg/kg/injection, schedule: Q01DX001 (ip), vehicle: Klucel (hydroxypropylcellulose) (HPC), evaluated on day 35",267 and 279 % of control
same,survivor count,"dose: 200.0 mg/kg/injection, schedule: Q01DX001 (ip), vehicle: Klucel (hydroxypropylcellulose) (HPC)",3 of 3
same,T/C,"dose: 200.0 mg/kg/injection, schedule: Q01DX001 (ip), vehicle: saline, evaluated on day 5","117, 118, 260, 262, 274, 277, 383 (2×), 389, 553, 559, 586, 672 % of control"
same,T/C,"dose: 200.0 mg/kg/injection, schedule: Q01DX001 (ip), vehicle: saline, evaluated on day 30","117, 140, 262 [5 of 6 alive], 283 % of control"
same,T/C,"dose: 200.0 mg/kg/injection, schedule: Q01DX001 (ip), vehicle: saline, evaluated on day 35",323 [5 of 6 alive] and 343 % of control
same,T/C,"dose: 200.0 mg/kg/injection, schedule: Q01DX001 (ip), vehicle: saline, evaluated on day 40",396 % of control
same,T/C,"dose: 200.0 mg/kg/injection, schedule: Q01DX001 (ip), vehicle: saline, evaluated on day 60","117, 118, 120, 260, 262, 275, 333, 383, 383 [9 of 10 alive], 468, 471, 483, 484, 529, 530, 553, 586 % of control"
same,survivor count,"dose: 200.0 mg/kg/injection, schedule: Q01DX001 (ip), vehicle: saline",10 of 10
same,T/C,[2],98 and 106 % of control
same,survivor count,[2],"3 of 6, 2 of 3, 4 of 6, 5 of 6, 3 of 3, 6 of 6 (2×)"
